# Measurements taken from PubChem BioAssay (NCATS).
# This list was built around the results that the source calls inconclusive (neither active nor inactive); the mix of calls is not that of the screen. Where the call is inconclusive, the potency comes from a doubtful curve fit. Activity calls are given as the source filed them. Calls come from the whole dose curve; as a rule, active = well fitted cell-killing curve with a large enough effect; inconclusive = small, poorly fitted or top-dose-only effect; inactive = flat fitted curve, though single readings scatter.
# Assay: Identifying Small Molecule Inhibitors of Pancreatic Cancer Stem Cells (A278, Adherent) (AID 1259361);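 note: viability read after 48 h compound exposure; nearly all actives have a fitted effect of over 35% in size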;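 for viability (% of control): 100% = DMSO-treated cells and 0% = cell-free media-only wells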
# Settings: viability (% of control): at 46.1 µM (top of the series)
# Excerpt: Progenitor-like cancer cells, often referred to as cancer stem cells (CSC), are believed to be the drivers of therapeutic resistance and rapid recurrence. CSCs are postulated to reside in specific niches characterized by low oxygen tension, limited nutrient supply, and high redox load. Selectively targeting CSC, alone or in combination with cytotoxic agents, as a means to produce durable remissions is an appealing concept. Modeling these cells in in vitro setting is an important step in finding new therapies and/or targets. Multiple reports highlight that forcing cells in culture into 3-dimensionaly architectures (spheroids) re-establishes key progenitor-like transcriptional signatures. Pancreatic cancer is among the diseases with the most dismal outlook which is driven, largely, by recurance following front-line therapies. […] In hopes of deriving new insight into the targeting of these pancreatic CSCs we examined three established pancreatic cancer cell lines in cytotoxicity assays versus a collection of approved and investigational drugs. Importantly, we screened these lines as traditional monolayer (2D) and spheroid (3D) formats to gain an appreciation of agents with differential activity.
# Multicellular tumor spheroids from Panc1, MiaPaCa-2, and the primary low-passage tissue culture line SB.06 were seeded in stem cell media (SCM) in nonadherent 6-well plates coated with hydrogel (Corning Life Sciences, Chelmsford, Mass) and pancreatic spheres generated for 14 days before screening. Cells were seeded into 1536-well solid-bottom white tissue culture treated Greiner Bio One Plates (789173-F) using a MultiDrop Combi (Thermofisher Scientific) dispenser and a small sterile cassette. One column was media alone to be used as a :"no cells" control. The plates were then covered with sterilized stainless steel gasketed lids from Kalypsys. After allowing cells to attach for 4 hours, 23 nL of test compound or control (negative control DMSO and positive control 9.2 uM Bortezomib-final) were added from a 1536-well polypropylene compound source plate to each well using a 1536 head pin tool from Kalypsys. Cells were then incubated for 48 hours at 37C, 95% relative humidity and 5% CO2. After 48 hours, plates were removed from the incubator and 3 uL of CellTiter-Glo (Promega) was added using an Aurora Flying Reagent Dispenser Bioraptor. Plates were incubated at room temperature for 10 minutes prior to reading the luminescence on the Viewlux (PerkinElmer). The relative luciferase units are used to calculate the percent activity using the activity of DMSO in the cells and no cells columns for normalization of no inhibition and full inhibition respectively.
Structure (SMILES),IC50 (viability decrease),viability (% of control)
CCOC(=O)N[C@@H]1CC[C@@H]2[C@@H](C1)C[C@H]1C(=O)O[C@H](C)[C@H]1[C@@H]2C=Cc1ccc(-c2cccc(F)c2)cn1,"inconclusive: 20.9 µM [cytotoxic, partial curve]",
NC(=O)c1ccc(I)c([N+](=O)[O-])c1,inactive,
CCC(C)n1ncn(-c2ccc(N3CCN(c4ccc(OC[C@H]5CO[C@](Cn6cncn6)(c6ccc(Cl)cc6Cl)O5)cc4)CC3)cc2)c1=O (stereo not given in full),active: 5.9 µM,
COc1cc(F)c(F)c(Nc2ccc(I)cc2F)c1NS(=O)(=O)C1(C[C@H](O)CO)CC1,active: 20.9 µM,
O=C(Nc1cc(Cl)cc2c1[nH]c1cnccc12)c1cccnc1,"inconclusive: 33.2 µM [cytotoxic, single point]",
CCOC(CN1C(=O)[C@](CC(=O)Nc2ccc(C)cc2)(NC(=O)Nc2ccc(C)cc2)c2ccccc21)OCC,"inconclusive: 26.4 µM [cytotoxic, single point]",
Cn1cnc2c(F)c(Nc3ccc(Br)cc3Cl)c(C(=O)NOCCO)cc21,"inconclusive: 5.26 µM [cytotoxic, partial curve]",
N#Cc1ccc(C(c2ccc(C#N)cc2)n2cncn2)cc1,inactive,
Cc1cn2c(-c3cn[nH]c3)cnc2c(Nc2ccc(C(=O)N3CCNCC3)cc2F)n1,"inconclusive: 20.9 µM [cytotoxic, partial curve]",
Nc1nc(-c2nn(Cc3ccccc3F)c3ncccc23)nc(N)c1N1CCOCC1,inactive,
COc1cc([C@@H]2c3cc4c(cc3[C@H](O)[C@H]3COC(=O)[C@H]23)OCO4)cc(OC)c1OC,active: 0.0148 µM,
CC(C)(C)c1cc(C(=O)O)c(NC(=O)Nc2ccc3[nH]ncc3c2)s1,inactive,
O=C(C1CC1)N1CC[C@@H](Cn2c(-c3ccc(-c4ccc5occc5c4)cc3)nc3cnccc32)C1,"inconclusive: 5.9 µM [cytotoxic, full curve]",
Cn1c2cc(S(C)=O)sc2c2cnn(Cc3cccc(N)c3)c(=O)c21 (stereo not given),inactive,
CCN(CC)CCCC(C)Nc1nc(C)cc(Nc2ccc3nc(C)cc(N)c3c2)n1 (stereo not given),inactive,
O=C(O)c1ccc(-c2cc3cccnc3c(-c3ccc4nonc4c3)n2)cc1,inactive,
Cc1cc2c(cc1C1(c3ccc(C(=O)O)cn3)CC1)C(C)(C)CCC2(C)C,"inconclusive: 7.43 µM [cytotoxic, partial curve, poor fit]",
C[C@]12CC[C@H](O)CC1=CC[C@@H]1[C@H]2CC[C@]2(C)C(c3cccnc3)=CC[C@H]12,inactive,
CC[C@H](CO)Nc1nc(NCc2ccccc2)c2ncn(C(C)C)c2n1,active: 18.7 µM,
Cc1cccc(-c2[nH]ncc2-c2ccc3ncccc3n2)n1,inactive,

# A draw from above in order of molar mass, rising.
Structure (SMILES),IC50 (viability decrease),viability (% of control)
CC(C)(C)c1cc(C(=O)O)c(NC(=O)Nc2ccc3[nH]ncc3c2)s1,inactive,
CCN(CC)CCCC(C)Nc1nc(C)cc(Nc2ccc3nc(C)cc(N)c3c2)n1 (stereo not given),inactive,
CCOC(CN1C(=O)[C@](CC(=O)Nc2ccc(C)cc2)(NC(=O)Nc2ccc(C)cc2)c2ccccc21)OCC,"inconclusive: 26.4 µM [cytotoxic, single point]",

# The list continues.

Structure (SMILES),IC50 (viability decrease),viability (% of control)
CCCCc1ccc(NS(=O)(=O)c2ccc(C)c(C(=O)N3CCN(c4cccc(C)c4C)CC3)c2)cc1,"inconclusive: 20.9 µM [cytotoxic, partial curve]",
CNC(=O)c1cc(COc2nnc(Nc3ccc(Cl)cc3)c3ccoc23)ccn1,"inconclusive: 33.2 µM [cytotoxic, single point]",
CN(C)c1ccc(C2Nc3ccc4ccccc4c3C3=C2C(=O)CC(C)(C)C3)cc1Br (stereo not given),"inconclusive: 13.2 µM [cytotoxic, partial curve]",
CCC(C)N(C)C(=O)c1cc2ccccc2c(-c2ccccc2Cl)n1 (stereo not given),inactive,
CCOC(=O)C1=C(O)C(=O)N(Cc2ccccc2)C1,,inconclusive: 104
NC(=O)c1ccc(N(C(N)=O)c2c(F)cccc2F)nc1-c1ccc(F)cc1F,inactive,
CCC(=O)N[C@H]1CC[C@H](C(=O)N(C)c2ccc(-c3nc4ccccc4o3)cc2)C1,"inconclusive: 16.6 µM [cytotoxic, partial curve]",
COc1nc(-c2ccc3c(c2)OCO3)n(-c2ccc(NC(=O)CSc3ccccc3)cc2)n1,"inconclusive: 20.9 µM [cytotoxic, single point]",
CC1(C)SCCN(S(=O)(=O)c2ccc(OCC#CCO)cc2)[C@@H]1C(=O)NO,inactive,
CC(C)C[C@H](NC(=O)[C@H](CCc1ccccc1)NC(=O)CN1CCOCC1)C(=O)N[C@@H](Cc1ccccc1)C(=O)N[C@@H](CC(C)C)C(=O)[C@@]1(C)CO1,active: 0.0023 µM,
Nc1nc2[nH]cc(CCc3ccc(C(=O)N[C@@H](CCC(=O)O)C(=O)O)cc3)c2c(=O)[nH]1,"inconclusive: 0.418 µM [cytotoxic, full curve]",
Cn1cc(-c2ccc3nnc(C(F)(F)c4ccc5ncccc5c4)n3n2)cn1,inactive,
COc1ccc2c(c1)CC[C@H]1[C@@H]2CC[C@]2(C)[C@@H](NCCCCCCN3C(=O)C=CC3=O)CC[C@H]12,active: 20.9 µM,
O=C(Nc1cccnc1)N1CCC(Cc2cccc(Oc3ccc(C(F)(F)F)cn3)c2)CC1,"inconclusive: 9.35 µM [cytotoxic, full curve]",
c1ccc(-c2nn3c(c2-c2ccnc4cc(OCCN5CCOCC5)ccc24)CCC3)nc1,"inconclusive: 33.2 µM [cytotoxic, single point]",
CCCCCCCCCCCCCC(=O)N[C@H](CO)[C@H](O)c1ccc([N+](=O)[O-])cc1,"inconclusive: 33.2 µM [cytotoxic, single point]",
C1Cc2[nH]nc(-c3nn[nH]n3)c2C1,inactive,
O=C(C=Cc1ccc(/C=C/C(=O)Nc2ccc(C3=NCCN3)cc2)cc1)Nc1ccc(C2=NCCN2)cc1,inactive,
Cc1nc(Nc2ncc(C(=O)Nc3c(C)cccc3Cl)s2)cc(N2CCN(CCO)CC2)n1,"inconclusive: 23.5 µM [cytotoxic, partial curve]",
CCN(CCO)CCCC(C)Nc1ccnc2cc(Cl)ccc12 (stereo not given),inactive,
